Binding screen against folded nucleic acids

Targets, with sequences 5′ to 3′:
PreQ1: PreQ1 riboswitch RNA pseudoknot, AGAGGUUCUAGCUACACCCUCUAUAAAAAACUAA. From B. subtilis. About 170 hits among about 24,000 compounds.
TPP: TPP riboswitch RNA three-way junction, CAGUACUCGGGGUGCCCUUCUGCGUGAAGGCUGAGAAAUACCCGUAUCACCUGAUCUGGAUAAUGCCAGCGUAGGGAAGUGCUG. About 160 hits among about 24,000 compounds.
SAM-II: SAM-II riboswitch RNA pseudoknot, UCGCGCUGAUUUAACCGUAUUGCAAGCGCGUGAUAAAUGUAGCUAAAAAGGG. About 200 hits among about 21,000 compounds.

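The test is a small-molecule microarray: each compound is printed twice on a reactive slide, and binding shows as fluorescence of the labelled oligonucleotide after washing. The data file lists only calls. An earlier report of the laboratory on the PreQ1, TPP and SAM-II riboswitches (doi:10.1038/s41467-019-09493-3) used 1 µM RNA for 2 h and required a mean Z-score above 3 (spot signal-to-noise against the whole library), a score well above that on a control array, and duplicate spots agreeing (coefficient of variation under 100); it then also set aside compounds that hit other targets, which this list keeps. The cut-offs behind this list may differ. The calls come from the array alone, and fixing a compound to the slide can hide its binding.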
“Y” means called a hit, “N” means screened and not called a hit.
The compounds are a random part of those screened.
A target missing from an entry has no call listed here.

{"compound": "O=C(CCl)NC1(C(=O)O)CCCC1", "PreQ1": "N", "TPP": "N", "SAM-II": "N"}
{"compound": "Cc1ccc(C2(O)CCN(C(=O)Cn3nc(C)cc3N)CC2)nc1", "PreQ1": "N", "TPP": "N", "SAM-II": "N"}
{"compound": "Cc1ccc(C(NC(=O)CCc2cc3n(n2)CCCNC3)c2cccnc2)cc1C", "stereo": "centres unmarked", "PreQ1": "N", "TPP": "N", "SAM-II": "N"}
{"compound": "CSCCCN1CCC2(CCNCC2)C1", "PreQ1": "N", "TPP": "N", "SAM-II": "N"}
{"compound": "OC(CNC1CCC2(CCNCC2)CC1)c1cccnc1", "stereo": "centres unmarked", "PreQ1": "N", "TPP": "N", "SAM-II": "N"}
{"compound": "CCN(CC)CCCNc1c2c(c(C#N)c3nc4ccccc4n13)CCC2", "PreQ1": "N", "TPP": "N", "SAM-II": "N"}
{"compound": "Cc1[nH]c2c(C)cccc2c1C(O)CN1CCCCC1", "stereo": "centres unmarked", "PreQ1": "N", "TPP": "N"}
{"compound": "Cc1ncc([N+](=O)[O-])n1CC(C)O", "stereo": "centres unmarked", "PreQ1": "N", "TPP": "N", "SAM-II": "N"}
{"compound": "Cc1cc2c(c(=O)o1)C(c1ccc(Br)cc1)C(C#N)=C(N)O2", "stereo": "centres unmarked", "PreQ1": "N", "TPP": "N", "SAM-II": "N"}
{"compound": "O=C(O)C1CC2(CCN(C(=O)Cc3ccc4c(c3)OCO4)CC2)CN1", "stereo": "centres unmarked", "PreQ1": "N", "TPP": "N", "SAM-II": "N"}
{"compound": "Cc1ccc(-c2cc(N)n3nc(-c4ccc(C)cc4)cc3n2)cc1", "PreQ1": "N", "TPP": "N", "SAM-II": "N"}
{"compound": "Cc1ccc(NC(=O)N2CCCCC2)cc1NC(=O)N1CCCCC1", "PreQ1": "N", "TPP": "N", "SAM-II": "N"}
{"compound": "Cc1cc(C)n(-c2nc3cc(Cl)ccc3nc2Nc2ccc(C(=O)O)cc2)n1", "PreQ1": "N", "TPP": "N"}
{"compound": "CC1=C(O)C(=O)C(c2c(C)cc(C)c(Br)c2C)=C(O)C1=O", "PreQ1": "N", "TPP": "N", "SAM-II": "N"}
{"compound": "Cc1cc2n(n1)CCCN(C(=O)C1NCCc3[nH]cnc31)C2", "stereo": "centres unmarked", "PreQ1": "N", "TPP": "N", "SAM-II": "N"}
{"compound": "Nc1ccc(Br)cn1", "PreQ1": "N", "TPP": "N", "SAM-II": "N"}
{"compound": "NC(=O)C1=C(Nc2cccc(F)c2)c2ccccc2S1(=O)=O", "PreQ1": "N", "TPP": "N"}
{"compound": "CC(=O)c1sc(NC(C)C)c(C#N)c1N", "PreQ1": "N", "TPP": "N", "SAM-II": "N"}
{"compound": "COCCNS(=O)(=O)c1cc(C(=O)O)cc(-c2ccc(CN)cc2)c1", "PreQ1": "N", "TPP": "N", "SAM-II": "N"}
{"compound": "CSc1ccc(CN(CCO)C(=O)c2cn3ccsc3n2)cc1", "PreQ1": "N", "TPP": "N", "SAM-II": "N"}
{"compound": "COc1cc(F)ccc1-c1cnc(N)cn1", "PreQ1": "N", "TPP": "N", "SAM-II": "N"}
{"compound": "Cc1ccc2c(N)c(C(=O)c3ccc(Br)cc3)sc2n1", "PreQ1": "N", "TPP": "N", "SAM-II": "N"}
{"compound": "Nc1cc(Cl)ccc1Sc1nc2ccccc2s1", "PreQ1": "N", "TPP": "N", "SAM-II": "N"}
{"compound": "COc1ccc2cc(CN3CCC4(CC3)[C@H](O)C[C@@H]4OCCN)c(=O)[nH]c2c1", "PreQ1": "N", "TPP": "N", "SAM-II": "N"}
{"compound": "CCCC1=C(C(=O)OC)C2(C(=O)Nc3ccccc32)C(C(=O)OCC)=C(N)O1", "stereo": "centres unmarked", "PreQ1": "N", "TPP": "N", "SAM-II": "N"}
{"compound": "OC(COC1CCCCC1)Cn1c2ccccc2c2ccccc21", "stereo": "centres unmarked", "PreQ1": "N", "TPP": "N", "SAM-II": "N"}
{"compound": "CCCC12CN3CC(CCC)(CN(C1)C3c1ccc(N)cc1)C2=O", "stereo": "centres unmarked", "PreQ1": "N", "TPP": "N"}

The last 2 entries again:

* OC(COC1CCCCC1)Cn1c2ccccc2c2ccccc21 (centres unmarked) | PreQ1: N; TPP: N; SAM-II: N
* CCCC12CN3CC(CCC)(CN(C1)C3c1ccc(N)cc1)C2=O (centres unmarked) | PreQ1: N; TPP: N

From ROBIN, a set of small-molecule microarray screens (doi:10.1002/anie.202211358).